Where a chain is given by its changes, count along the chain named. Names and notes keep the numbering of the source. These are yes or no findings as the source states them, for the method shown. Binding seen in cells or lysates may run through a third protein. Some binding calls cover weakened binding; strength is not graded here. Where a sequence is shown, tags or fusion partners need not be part of it. One block for each binder: values may come before it.
Legend:
[1] = target: T1, Smc3(K198C, S1127R)-HaloTag (S. cerevisiae) (UniProt P47037); test: cross-linking
T1 sequence: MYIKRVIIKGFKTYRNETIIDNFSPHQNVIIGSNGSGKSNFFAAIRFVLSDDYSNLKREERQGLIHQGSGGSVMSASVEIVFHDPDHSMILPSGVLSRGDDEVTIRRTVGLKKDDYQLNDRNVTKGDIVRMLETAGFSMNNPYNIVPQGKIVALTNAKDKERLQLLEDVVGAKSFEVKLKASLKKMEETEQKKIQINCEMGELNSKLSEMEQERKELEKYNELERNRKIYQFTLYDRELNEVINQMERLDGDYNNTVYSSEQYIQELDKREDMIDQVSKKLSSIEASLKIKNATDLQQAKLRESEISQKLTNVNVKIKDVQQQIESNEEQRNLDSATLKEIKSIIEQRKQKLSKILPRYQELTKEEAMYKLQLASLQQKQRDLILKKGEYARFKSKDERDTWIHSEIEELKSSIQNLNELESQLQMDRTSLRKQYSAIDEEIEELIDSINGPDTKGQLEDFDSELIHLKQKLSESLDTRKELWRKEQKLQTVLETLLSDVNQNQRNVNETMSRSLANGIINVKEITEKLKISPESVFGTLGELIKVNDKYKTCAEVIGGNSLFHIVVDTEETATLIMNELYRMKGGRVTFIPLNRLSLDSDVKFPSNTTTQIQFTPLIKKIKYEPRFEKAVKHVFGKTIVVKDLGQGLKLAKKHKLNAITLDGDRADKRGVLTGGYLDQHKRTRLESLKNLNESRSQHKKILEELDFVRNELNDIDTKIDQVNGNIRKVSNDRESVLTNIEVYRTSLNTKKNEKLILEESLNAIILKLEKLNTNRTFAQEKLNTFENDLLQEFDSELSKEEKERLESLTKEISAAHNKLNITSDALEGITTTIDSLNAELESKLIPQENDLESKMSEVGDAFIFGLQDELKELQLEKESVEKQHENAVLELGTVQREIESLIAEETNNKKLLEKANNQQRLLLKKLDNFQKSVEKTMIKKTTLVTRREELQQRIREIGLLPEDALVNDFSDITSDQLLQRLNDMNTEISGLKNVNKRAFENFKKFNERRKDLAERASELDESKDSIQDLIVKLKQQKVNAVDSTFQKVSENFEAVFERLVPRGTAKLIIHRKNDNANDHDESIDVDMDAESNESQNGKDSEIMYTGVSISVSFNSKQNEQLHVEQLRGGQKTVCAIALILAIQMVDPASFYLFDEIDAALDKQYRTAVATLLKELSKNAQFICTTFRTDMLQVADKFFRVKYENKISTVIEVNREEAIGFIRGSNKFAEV

[2] = target: T2, Smc3(E570C)-HaloTag (S. cerevisiae) (UniProt P47037); test: cross-linking
T2 sequence: T1 sequence with C198K, E570C, R1127S

binding [1]: binds
B1: Smc1(K201C) (protein, UniProt P32908 1-1225)
chain: MGRLVGLELSNFKSYRGVTKVGFGESNFTSIIGPNGSGKSNMMDAISFVLGVRSNHLRSNILKDLIYRGVLNDENSDDYDNEGAASSNPQSAYVKAFYQKGNKLVELMRIISRNGDTSYKIDGKTVSYKDYSIFLENENILIKAKNFLVFQGDVEQIAAQSPVELSRMFEEVSGSIQYKKEYEELKEKIEKLSKSATESICNRRRIHGELKTYKEGINKNEEYRKQLDKKNELQKFQALWQLYHLEQQKEELTDKLSALNSEISSLKGKINNEMKSLQRSKSSFVKESAVISKQKSKLDYIFKDKEKLVSDLRLIKVPQQAAGKRISHIEKRIESLQKDLQRQKTYVERFETQLKVVTRSKEAFEEEIKQSARNYDKFKLNENDLKTYNCLHEKYLTEGGSILEEKIAVLNNDKREIQEELERFNKRADISKRRITEELSITGEKLDTQLNDLRVSLNEKNALHTERLHELKKLQSDIESANNQEYDLNFKLRETLVKIDDLSANQRETMKERKLRENIAMLKRFFPGVKGLVHDLCHPKKEKYGLAVSTILGKNFDSVIVENLTVAQECIAFLKKQRAGTASFIPLDTIETELPTLSLPDSQDYILSINAIDYEPEYEKAMQYVCGDSIICNTLNIAKDLKWKKGIRGKLVTIEGALIHKAGLMTGGISGDANNRWDKEEYQSLMSLKDKLLIQIDELSNGQRSNSIRAREVENSVSLLNSDIANLRTQVTQQKRSLDENRLEIKYHNDLIEKEIQPKITELKKKLDDLENTKDNLVKEKEALQNNIFKEFTSKIGFTIKEYENHSGELMRQQSKELQQLQKQILTVENKLQFETDRLSTTQRRYEKAQKDLENAQVEMKSLEEQEYAIEMKIGSIESKLEEHKNHLDELQKKFVTKQSELNSSEDILEDMNSNLQVLKRERDGIKEDIEKFDLERVTALKNCKISNINIPISSETTIDDLPISSTDNEAITISNSIDINYKGLPKKYKENNTDSARKELEQKIHEVEEILNELQPNARALERYDEAEGRFEVINNETEQLKAEEKKILNQFLKIKKKRKELFEKTFDYVSDHLDAIYRELTKNPNSNVELAGGNASLTIEDEDEPFNAGIKYHATPPLKRFKDMEYLSGGEKTVAALALLFAINSYQPSPFFVLDEVDAALDITNVQRIAAYIRRHRNPDLQFIVISLKNTMFEKSDALVGVYRQQQENSSKIITLDLSNYAE

binding [2]: binds
B2: Smc1(K639C) (protein, UniProt P32908 1-1225)
chain: B1 chain with C201K, K639C

From publication doi:10.1101/495762 (bioRxiv, 2018)
